Results on one compound are retold here after ChEMBL document CHEMBL1687827, “Profiling the Aspergillus fumigatus proteome in response to caspofungin” (2011).

Structures are written as SMILES. The source gives many values for each of these; only a part stands here.

What all share (type): functional
The subject of test [1] is Aspergillus fumigatus. As to the kind of experiment: Induction of change in cytochrome c oxidase subunit Va, putative protein level in iTRAQ-118 labelled cell wall fraction of drug-susceptible Aspergillus fumigatus KU80 delta-akuB at 0.12 ug/ml after 24 hrs in YPD medium by MS (MS/MS) analysis relative to control.
In test [2] the test system is Aspergillus fumigatus. As to the kind of experiment: Induction of change in Ribosomal L15 protein level in iTRAQ114 labelled secreted fraction of drug-susceptible Aspergillus fumigatus KU80 delta-akuB at 0.12 ug/ml after 24 hrs in YPD medium by MS (MS/MS) analysis relative to control.
Test [3] has as its system Aspergillus fumigatus. The experiment in a line: Induction of change in thioredoxin protein level in iTRAQ-118 labelled cell wall fraction of drug-susceptible Aspergillus fumigatus KU80 delta-akuB at 0.12 ug/ml after 24 hrs in YPD medium by MS (MS/MS) analysis relative to control.
For test [4], the system named is Aspergillus fumigatus. As to the kind of experiment: Induction of change in cytosolic small ribosomal subunit protein S12 protein level in iTRAQ114 labelled cell wall fraction of drug-susceptible Aspergillus fumigatus KU80 delta-akuB at 0.12 ug/ml after 24 hrs in YPD medium by MS (MS/MS) analysis relative to control.
For test [5], the system named is Aspergillus fumigatus. The experiment in a line: Induction of change in nucleoside diphosphate kinase protein level in iTRAQ-116 labelled secreted fraction of drug-susceptible Aspergillus fumigatus KU80 delta-akuB at 0.12 ug/ml after 48 hrs in YPD medium by MS (MS/MS) analysis relative to control.
The subject of test [6] is Aspergillus fumigatus. As to the kind of experiment: Induction of change in 60s ribosomal protein L24, putative protein level in iTRAQ114 labelled secreted fraction of drug-susceptible Aspergillus fumigatus KU80 delta-akuB at 0.12 ug/ml after 24 hrs in YPD medium by MS (MS/MS) analysis relative to control.
The test system of test [7] is Aspergillus fumigatus. The experiment in a line: Induction of change in 60s ribosomal protein yl17-b protein level in iTRAQ114 labelled cell wall fraction of drug-susceptible Aspergillus fumigatus KU80 delta-akuB at 0.12 ug/ml after 24 hrs in YPD medium by MS (MS/MS) analysis relative to control.
In test [8] the test system is Aspergillus fumigatus. As to the kind of experiment: Induction of change in Mn superoxide dismutase MnSOD protein level in iTRAQ114 labelled secreted fraction of drug-susceptible Aspergillus fumigatus KU80 delta-akuB at 0.12 ug/ml after 24 hrs in YPD medium by MS (MS/MS) analysis relative to control.
In test [9] the test system is Aspergillus fumigatus. The experiment in a line: Induction of change in ribosomal protein L26 protein level in iTRAQ114 labelled cell wall fraction of drug-susceptible Aspergillus fumigatus KU80 delta-akuB at 0.12 ug/ml after 24 hrs in YPD medium by MS (MS/MS) analysis relative to control.
Test [10] concerns Aspergillus fumigatus. The experiment in a line: Induction of change in 1,3-beta-glucanosyltransferase Gel1 protein level in iTRAQ-116 labelled secreted fraction of drug-resistant Aspergillus fumigatus EMFR-S678P at 0.12 ug/ml after 48 hrs in YPD medium by MS (MS/MS) analysis relative to control.
Test [11] has as its system Aspergillus fumigatus. The experiment in a line: Induction of change in 60S ribosomal protein L19 protein level in iTRAQ-118 labelled cell wall fraction of drug-susceptible Aspergillus fumigatus KU80 delta-akuB at 0.12 ug/ml after 24 hrs in YPD medium by MS (MS/MS) analysis relative to control.
Test [12] has as its system Aspergillus fumigatus. The experiment in a line: Induction of change in ATP citrate lyase subunit (Acl), putative protein level in iTRAQ114 labelled secreted fraction of drug-susceptible Aspergillus fumigatus KU80 delta-akuB at 0.12 ug/ml after 24 hrs in YPD medium by MS (MS/MS) analysis relative to control.
The subject of test [13] is Aspergillus fumigatus. The experiment in a line: Induction of change in citrate synthase, eukaryotic gene expression in drug-susceptible Aspergillus fumigatus KU80 delta-akuB at 0.12 ug/ml after 48 hrs in YPD medium by microarray analysis relative to control.
Test [14] relates to Aspergillus fumigatus. As to the kind of experiment: Induction of change in CipC-like antibiotic response protein, putative protein level in iTRAQ-118 labelled cell wall fraction of drug-resistant Aspergillus fumigatus EMFR-S678P at 0.12 ug/ml after 24 hrs in YPD medium by MS (MS/MS) analysis relative to control.
Test [15] relates to Aspergillus fumigatus. The experiment in a line: Induction of change in ribosomal protein L16a gene expression in drug-susceptible Aspergillus fumigatus KU80 delta-akuB at 0.12 ug/ml after 24 hrs in YPD medium by microarray analysis relative to control.
Test [16] has as its system Aspergillus fumigatus. The experiment in a line: Induction of change in GPI-anchored cell wall organization protein Ecm33 protein level in iTRAQ-118 labelled cell wall fraction of drug-resistant Aspergillus fumigatus EMFR-S678P at 0.12 ug/ml after 24 hrs in YPD medium by MS (MS/MS) analysis relative to control.
The test system of test [17] is Aspergillus fumigatus. As to the kind of experiment: Induction of change in cytosolic ribosomal protein (Rps29a), putative gene expression in drug-susceptible Aspergillus fumigatus KU80 delta-akuB at 0.12 ug/ml after 24 hrs in YPD medium by microarray analysis relative to control.
Test [18] has as its system Aspergillus fumigatus. The experiment in a line: Induction of change in Ribosomal protein L31e gene expression in drug-susceptible Aspergillus fumigatus KU80 delta-akuB at 0.12 ug/ml after 24 hrs in YPD medium by microarray analysis relative to control.
For test [19], the system named is Aspergillus fumigatus. The experiment in a line: Induction of change in conserved hypothetical gene locus AFUA_5G07590 expression in drug-susceptible Aspergillus fumigatus KU80 delta-akuB at 0.12 ug/ml after 48 hrs in YPD medium by microarray analysis relative to control.
Test [20] concerns Aspergillus fumigatus. As to the kind of experiment: Induction of change in ribosomal protein L27a protein level in iTRAQ114 labelled secreted fraction of drug-susceptible Aspergillus fumigatus KU80 delta-akuB at 0.12 ug/ml after 24 hrs in YPD medium by MS (MS/MS) analysis relative to control.
Test [21] deals with Aspergillus fumigatus. The experiment in a line: Induction of change in ribosomal protein S8 gene expression in drug-susceptible Aspergillus fumigatus KU80 delta-akuB at 0.12 ug/ml after 24 hrs in YPD medium by microarray analysis relative to control.
The subject of test [22] is Aspergillus fumigatus. As to the kind of experiment: Induction of change in hypothetical gene locus AFUA_6G02310 expression in drug-susceptible Aspergillus fumigatus KU80 delta-akuB at 0.12 ug/ml after 48 hrs in YPD medium by microarray analysis relative to control.
Test [23] deals with Aspergillus fumigatus. As to the kind of experiment: Induction of change in cell wall glucanase, putative protein level in iTRAQ-116 labelled secreted fraction of drug-susceptible Aspergillus fumigatus KU80 delta-akuB at 0.12 ug/ml after 48 hrs in YPD medium by MS (MS/MS) analysis relative to control.

For the compound `CC[C@H](C)C[C@H](C)CCCCCCCCC(=O)N[C@H]1C[C@@H](O)[C@@H](NCCN)NC(=O)[C@@H]2[C@@H](O)CCN2C(=O)[C@H]([C@H](O)CCN)NC(=O)[C@H]([C@H](O)[C@@H](O)c2ccc(O)cc2)NC(=O)[C@@H]2C[C@@H](O)CN2C(=O)[C@H]([C@@H](C)O)NC1=O` [CASPOFUNGIN], the “fold change (FC)” value in the test with Aspergillus fumigatus [1] is given as -2; in the test on Aspergillus fumigatus [2], 1.1; in the test on Aspergillus fumigatus [3], -2; with Aspergillus fumigatus [4], 1.5; with Aspergillus fumigatus [5] it was 3.7; in the test on Aspergillus fumigatus [6], 1.3. The “fold change (FC)” value is reported as 1.7 in the test on Aspergillus fumigatus [7]; -1.6 with Aspergillus fumigatus [8]; 1.7 with Aspergillus fumigatus [9]; -1.15 in the test on Aspergillus fumigatus [10]; 2.5 in the test on Aspergillus fumigatus [11]; 3.5 in the test on Aspergillus fumigatus [12]. The “fold change (FC)” value in the test with Aspergillus fumigatus [13] was -3.4; in the test on Aspergillus fumigatus [14] it was 1.52; in the test on Aspergillus fumigatus [15] it was 3.3; with Aspergillus fumigatus [16], 1.15; in the test on Aspergillus fumigatus [17], 5.2; with Aspergillus fumigatus [18] it was 6.8. Besides, the “fold change (FC)” value is given as -2.7 in the test on Aspergillus fumigatus [19]; 1.2 with Aspergillus fumigatus [20]; 4.9 with Aspergillus fumigatus [21]; 4 with Aspergillus fumigatus [22]; -1.3 with Aspergillus fumigatus [23].
